Test results as given in article PMC11450232.
Results are given in words; binding and its absence hold for the method and conditions named. In cells and extracts the contact can be indirect. Some results given as binding are weak or reduced against the parent protein; the word gives no strength. Where a sequence is shown, tags or fusion partners need not be part of it.

Columns and labels:
[1] = target: T1, HA-IRF3(K313/315N) (human) (UniProt Q14653); assay: co-IP; cells transfected with HA-IRF3 (wild type or mutant), with or without PBLD (1.2 or 2.4 ug), infected with BPIV3 for 24 h; non-denaturing lysis buffer; lysate incubated with HA antibody 12 h at 4 °C, then protein A/G resin 4 h; endogenous Puma and Noxa detected by western blot
T1 sequence: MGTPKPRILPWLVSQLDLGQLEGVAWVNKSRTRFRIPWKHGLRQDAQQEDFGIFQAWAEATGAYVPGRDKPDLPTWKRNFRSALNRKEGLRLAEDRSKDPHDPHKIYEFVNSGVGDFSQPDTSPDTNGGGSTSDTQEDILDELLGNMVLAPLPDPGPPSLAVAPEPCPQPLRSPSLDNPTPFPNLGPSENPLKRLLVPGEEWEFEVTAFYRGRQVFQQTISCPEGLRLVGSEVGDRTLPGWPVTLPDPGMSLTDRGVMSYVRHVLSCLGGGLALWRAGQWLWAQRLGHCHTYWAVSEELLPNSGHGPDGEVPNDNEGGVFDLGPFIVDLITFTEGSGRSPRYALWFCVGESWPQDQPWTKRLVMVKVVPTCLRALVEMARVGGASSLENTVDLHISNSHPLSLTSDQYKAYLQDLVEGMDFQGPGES

[2] = target: T2, HA-tagged IRF3 (interferon regulatory factor 3), wild type (human) (UniProt Q14653); assay: as above
T2 sequence: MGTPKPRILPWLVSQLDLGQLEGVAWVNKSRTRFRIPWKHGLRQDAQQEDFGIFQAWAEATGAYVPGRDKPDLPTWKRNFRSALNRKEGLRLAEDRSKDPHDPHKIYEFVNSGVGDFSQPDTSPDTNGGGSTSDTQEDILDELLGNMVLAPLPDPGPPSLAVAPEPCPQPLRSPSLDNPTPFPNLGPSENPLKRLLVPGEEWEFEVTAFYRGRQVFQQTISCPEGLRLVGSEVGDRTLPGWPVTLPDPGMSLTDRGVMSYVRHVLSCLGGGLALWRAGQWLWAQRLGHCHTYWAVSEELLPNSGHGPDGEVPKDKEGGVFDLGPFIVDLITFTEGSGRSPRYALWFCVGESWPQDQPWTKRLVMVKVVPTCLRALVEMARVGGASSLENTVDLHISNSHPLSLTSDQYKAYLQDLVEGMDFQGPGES

binding [1]: binds
binding [2]: binds
B1: p53 upregulated modulator of apoptosis (Puma) (protein, UniProt Q9BXH1 1-193)
chain: MARARQEGSSPEPVEGLARDGPRPFPLGRLVPSAVSCGLCEPGLAAAPAAPTLLPAAYLCAPTAPPAVTAALGGSRWPGGPRSRPRGPRPDGPQPSLSLAEQHLESPVPSAPGALAGGPTQAAPGVRGEEEQWAREIGAQLRRMADDLNAQYERRRQEEQQRHRPSPWRVLYNLIMGLLPLPRGHRAPEMEPN
